# Paper PMC10014601 (Frontiers in Molecular Biosciences, 2023)
# HELM strings list residues between dots; [ac] is acetyl, [am] amide, other brackets name non-standard units.
# Experiment: Fmoc solid-phase peptide synthesis; chlorotrityl resin; PyBOP and HOBt with DIPEA (cyclization)
# Details: whole synthesis
substance,measurement,value
"PEPTIDE1{[bAla].R.Y.F.F.D.M.W.Y}$PEPTIDE1,PEPTIDE1,9:R2-1:R1$$$V2.0",isolated yield,20% yield
